Measurements published in publication doi:10.1101/438945.
Results are given in words; binding and its absence hold for the method and conditions named. In cells and extracts the contact can be indirect. Some binding calls cover weakened binding; strength is not graded here. Where a sequence is shown, tags or fusion partners need not be part of it.

By UniProt entry, the sequences of proteins in these tests, tags left out.
UniProt P51587: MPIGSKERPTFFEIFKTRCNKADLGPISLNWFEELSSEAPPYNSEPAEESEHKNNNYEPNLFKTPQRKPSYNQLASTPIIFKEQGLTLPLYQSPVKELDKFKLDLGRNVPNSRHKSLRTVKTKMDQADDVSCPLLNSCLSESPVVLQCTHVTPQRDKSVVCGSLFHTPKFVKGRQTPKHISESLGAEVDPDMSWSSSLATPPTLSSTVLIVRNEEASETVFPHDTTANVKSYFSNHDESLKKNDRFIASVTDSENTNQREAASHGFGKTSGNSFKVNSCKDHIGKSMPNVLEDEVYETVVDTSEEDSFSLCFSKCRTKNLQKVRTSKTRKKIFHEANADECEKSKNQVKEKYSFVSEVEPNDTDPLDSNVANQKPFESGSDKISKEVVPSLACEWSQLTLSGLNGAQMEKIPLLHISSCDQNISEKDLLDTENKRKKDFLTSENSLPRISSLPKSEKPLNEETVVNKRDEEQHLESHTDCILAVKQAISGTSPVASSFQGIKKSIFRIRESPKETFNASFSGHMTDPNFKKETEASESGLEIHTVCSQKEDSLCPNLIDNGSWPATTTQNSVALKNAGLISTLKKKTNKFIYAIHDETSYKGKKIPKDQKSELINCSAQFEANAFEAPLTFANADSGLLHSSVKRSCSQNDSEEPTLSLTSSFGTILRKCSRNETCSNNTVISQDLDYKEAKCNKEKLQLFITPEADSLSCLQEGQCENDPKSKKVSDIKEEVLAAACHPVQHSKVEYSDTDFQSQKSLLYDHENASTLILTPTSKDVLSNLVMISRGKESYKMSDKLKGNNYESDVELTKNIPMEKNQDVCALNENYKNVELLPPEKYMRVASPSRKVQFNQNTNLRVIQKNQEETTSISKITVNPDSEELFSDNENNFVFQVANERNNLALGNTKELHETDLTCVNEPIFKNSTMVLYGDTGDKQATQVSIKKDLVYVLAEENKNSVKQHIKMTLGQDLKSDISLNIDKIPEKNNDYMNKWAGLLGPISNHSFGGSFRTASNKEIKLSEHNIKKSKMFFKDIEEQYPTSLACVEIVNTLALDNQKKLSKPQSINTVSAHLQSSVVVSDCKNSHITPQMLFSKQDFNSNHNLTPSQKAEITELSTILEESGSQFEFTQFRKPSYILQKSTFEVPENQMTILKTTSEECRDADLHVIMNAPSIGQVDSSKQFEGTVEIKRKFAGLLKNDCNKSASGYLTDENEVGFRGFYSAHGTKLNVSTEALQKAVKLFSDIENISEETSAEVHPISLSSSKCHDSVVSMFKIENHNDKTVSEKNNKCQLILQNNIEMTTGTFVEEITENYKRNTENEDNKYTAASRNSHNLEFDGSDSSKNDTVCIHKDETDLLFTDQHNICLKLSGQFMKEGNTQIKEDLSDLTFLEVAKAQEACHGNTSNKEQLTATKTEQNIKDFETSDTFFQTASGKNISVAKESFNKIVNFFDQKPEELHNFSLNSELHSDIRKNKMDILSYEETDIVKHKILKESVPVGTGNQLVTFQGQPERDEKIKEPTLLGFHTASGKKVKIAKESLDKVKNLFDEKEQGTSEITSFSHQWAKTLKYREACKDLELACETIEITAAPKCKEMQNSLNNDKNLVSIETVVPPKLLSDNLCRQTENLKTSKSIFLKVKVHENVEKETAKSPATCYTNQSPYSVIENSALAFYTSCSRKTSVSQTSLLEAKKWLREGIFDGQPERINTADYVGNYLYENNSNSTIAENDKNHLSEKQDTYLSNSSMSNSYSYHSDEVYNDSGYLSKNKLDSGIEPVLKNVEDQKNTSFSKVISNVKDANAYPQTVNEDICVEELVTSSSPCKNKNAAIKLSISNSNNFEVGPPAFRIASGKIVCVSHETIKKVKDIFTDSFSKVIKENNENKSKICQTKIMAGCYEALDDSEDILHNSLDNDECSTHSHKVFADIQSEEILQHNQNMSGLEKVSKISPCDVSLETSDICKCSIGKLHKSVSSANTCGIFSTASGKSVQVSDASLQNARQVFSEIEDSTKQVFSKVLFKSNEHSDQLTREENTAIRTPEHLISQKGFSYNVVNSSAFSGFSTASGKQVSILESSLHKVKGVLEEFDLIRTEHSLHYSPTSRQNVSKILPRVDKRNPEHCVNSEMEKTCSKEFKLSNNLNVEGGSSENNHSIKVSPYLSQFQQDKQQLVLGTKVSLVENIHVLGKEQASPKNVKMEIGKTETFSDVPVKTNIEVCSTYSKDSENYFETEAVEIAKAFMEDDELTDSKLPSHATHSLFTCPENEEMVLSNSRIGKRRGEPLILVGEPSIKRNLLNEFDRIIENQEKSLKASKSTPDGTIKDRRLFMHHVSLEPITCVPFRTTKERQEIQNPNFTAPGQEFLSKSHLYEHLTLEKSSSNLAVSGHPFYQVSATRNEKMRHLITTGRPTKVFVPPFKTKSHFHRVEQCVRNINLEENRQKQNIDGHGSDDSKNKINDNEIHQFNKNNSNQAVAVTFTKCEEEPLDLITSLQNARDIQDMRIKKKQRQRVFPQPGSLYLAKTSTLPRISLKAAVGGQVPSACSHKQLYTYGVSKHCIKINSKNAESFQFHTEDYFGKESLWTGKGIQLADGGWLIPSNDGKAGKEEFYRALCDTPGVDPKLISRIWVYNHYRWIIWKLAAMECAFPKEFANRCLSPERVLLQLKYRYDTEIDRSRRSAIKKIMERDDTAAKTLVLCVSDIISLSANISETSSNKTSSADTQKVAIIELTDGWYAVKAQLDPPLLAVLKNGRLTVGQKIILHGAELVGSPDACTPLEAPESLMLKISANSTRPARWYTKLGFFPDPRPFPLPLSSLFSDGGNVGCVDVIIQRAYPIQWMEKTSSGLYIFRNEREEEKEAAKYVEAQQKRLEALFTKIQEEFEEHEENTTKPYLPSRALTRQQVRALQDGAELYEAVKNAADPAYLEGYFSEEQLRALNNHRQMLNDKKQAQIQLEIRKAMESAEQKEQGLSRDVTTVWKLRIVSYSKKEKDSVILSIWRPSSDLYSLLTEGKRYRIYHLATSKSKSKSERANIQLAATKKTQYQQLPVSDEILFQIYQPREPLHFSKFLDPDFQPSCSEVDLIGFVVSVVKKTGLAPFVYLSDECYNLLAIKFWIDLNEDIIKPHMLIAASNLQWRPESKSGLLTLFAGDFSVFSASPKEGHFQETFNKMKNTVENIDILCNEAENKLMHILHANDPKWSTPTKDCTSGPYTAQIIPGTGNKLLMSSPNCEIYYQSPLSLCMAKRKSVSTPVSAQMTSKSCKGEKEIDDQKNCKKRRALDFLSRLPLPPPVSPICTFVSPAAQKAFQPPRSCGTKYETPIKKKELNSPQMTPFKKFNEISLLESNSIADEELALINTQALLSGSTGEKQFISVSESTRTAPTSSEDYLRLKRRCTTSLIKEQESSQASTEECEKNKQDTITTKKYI

Biological target: T1, GFP-HSF2BP (mouse), in HEK293T cells (mouse) (UniProt Q9D4G2)
T1 sequence: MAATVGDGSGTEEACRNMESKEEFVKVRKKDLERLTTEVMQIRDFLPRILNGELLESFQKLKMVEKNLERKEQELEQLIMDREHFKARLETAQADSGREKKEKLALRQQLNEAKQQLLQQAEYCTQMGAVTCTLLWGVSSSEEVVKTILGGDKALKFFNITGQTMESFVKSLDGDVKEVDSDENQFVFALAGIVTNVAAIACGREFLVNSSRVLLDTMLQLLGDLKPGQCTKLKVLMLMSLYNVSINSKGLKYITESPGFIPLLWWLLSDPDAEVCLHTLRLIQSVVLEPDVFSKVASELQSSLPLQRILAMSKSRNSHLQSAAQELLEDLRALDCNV
Test: co-IP

- binding: binds
Substance: MBP-BRCA2 (human) (from UniProt P51587 1-3418)
